{
  "source": "patent EP0406992A2",
  "about": "“New non-ionic carboxamide contrast agent” (SCHERING AKTIENGESELLSCHAFT, priority 1989, dated 1991)",
  "origin": "cited, not measured here",
  "conditions": "values marked * (Laut Literaturangabe); cited from earlier work",
  "note": "At least one structure is not confirmed: it was looked up by name or label, or the drawing left a doubt. Marks after values point to notes of the source that are not given here.",
  "data": [
    {"smiles": "CC(=O)N(CC(O)CO)c1c(I)c(C(=O)NCC(O)CO)c(I)c(C(=O)NCC(O)CO)c1I", "note": "(stereo not shown) [Iohexol]", "values": [
      {"measurement": "Viskosität von 300 mg I/ml bei 37 °C", "value": "6,3* cps"}
    ]}
  ]
}
